Assay [1] deals with endogenous HP1γ (human (endogenous in MM.1 S and LP-1)) (UniProt Q13185). Put plainly: co-IP; endogenous proteins in MM.1 S cells; input 2% whole cell lysate.
In the next assay the target is HP1γ-K5R (UniProt Q13185). Put plainly: co-IP; HP1γ-WT, -K5R and -K5Q immunoprecipitated; blots for MDC1, HDAC1 and H3K9me3 (Supplementary Fig. 6e); cells not given.
The target in assay [2] is HP1γ-WT (immunoprecipitated, Supplementary Fig. 6e) (UniProt Q13185). The description is as above.
For a further assay, the target named is HP1γ-K5Q (UniProt Q13185). The assay is described as above.
The target of assay [3] is endogenous HP1γ (human (endogenous in MM.1 S and LP-1)) (UniProt Q13185). Kind of assay: co-IP; endogenous HP1γ and MDC1, both directions; input 2% whole cell lysate; cells not named.
Another assay concerns the target flag-tagged HP1γ (UniProt Q13185). Kind of assay: co-IP; exogenously expressed proteins; NP-40 lysis buffer (50 mM Tris-HCl pH 7.4, 150 mM NaCl), anti-FLAG M2 affinity gel at 4 °C overnight, blot with anti-GFP.
For assay [4], the target named is HP1γ-flag (lentiviral, in WT and BR MM cells) (UniProt Q13185). Put plainly: co-IP; flag pull-down (silver staining) and IP from WT and BR LP-1 and MM.1 S cells infected with HP1γ-flag lentivirus for 72 h; input 2% lysate.
The target of assay [5] is endogenous MDC1 (Fig. 3f) (UniProt Q14676). Put plainly: co-IP; endogenous HP1γ and MDC1, both directions; input 2% whole cell lysate; cells not named.
The target of assay [6] is HDAC1-flag fusion protein in LP-1 cells (UniProt Q13547). Kind of assay: co-IP; HDAC1-flag fusion protein immunoprecipitated from LP-1 cells.

Sequences of proteins named here, by UniProt entry; tags and fusion partners are left off. A change or cut given only in a name is not applied to a line headed by its entry.
UniProt Q13185: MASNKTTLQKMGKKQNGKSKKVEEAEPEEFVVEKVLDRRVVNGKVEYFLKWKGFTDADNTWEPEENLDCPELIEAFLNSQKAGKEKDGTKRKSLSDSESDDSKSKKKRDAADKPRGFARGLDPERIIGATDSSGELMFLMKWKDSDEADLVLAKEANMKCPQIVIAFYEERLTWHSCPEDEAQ
UniProt Q14676: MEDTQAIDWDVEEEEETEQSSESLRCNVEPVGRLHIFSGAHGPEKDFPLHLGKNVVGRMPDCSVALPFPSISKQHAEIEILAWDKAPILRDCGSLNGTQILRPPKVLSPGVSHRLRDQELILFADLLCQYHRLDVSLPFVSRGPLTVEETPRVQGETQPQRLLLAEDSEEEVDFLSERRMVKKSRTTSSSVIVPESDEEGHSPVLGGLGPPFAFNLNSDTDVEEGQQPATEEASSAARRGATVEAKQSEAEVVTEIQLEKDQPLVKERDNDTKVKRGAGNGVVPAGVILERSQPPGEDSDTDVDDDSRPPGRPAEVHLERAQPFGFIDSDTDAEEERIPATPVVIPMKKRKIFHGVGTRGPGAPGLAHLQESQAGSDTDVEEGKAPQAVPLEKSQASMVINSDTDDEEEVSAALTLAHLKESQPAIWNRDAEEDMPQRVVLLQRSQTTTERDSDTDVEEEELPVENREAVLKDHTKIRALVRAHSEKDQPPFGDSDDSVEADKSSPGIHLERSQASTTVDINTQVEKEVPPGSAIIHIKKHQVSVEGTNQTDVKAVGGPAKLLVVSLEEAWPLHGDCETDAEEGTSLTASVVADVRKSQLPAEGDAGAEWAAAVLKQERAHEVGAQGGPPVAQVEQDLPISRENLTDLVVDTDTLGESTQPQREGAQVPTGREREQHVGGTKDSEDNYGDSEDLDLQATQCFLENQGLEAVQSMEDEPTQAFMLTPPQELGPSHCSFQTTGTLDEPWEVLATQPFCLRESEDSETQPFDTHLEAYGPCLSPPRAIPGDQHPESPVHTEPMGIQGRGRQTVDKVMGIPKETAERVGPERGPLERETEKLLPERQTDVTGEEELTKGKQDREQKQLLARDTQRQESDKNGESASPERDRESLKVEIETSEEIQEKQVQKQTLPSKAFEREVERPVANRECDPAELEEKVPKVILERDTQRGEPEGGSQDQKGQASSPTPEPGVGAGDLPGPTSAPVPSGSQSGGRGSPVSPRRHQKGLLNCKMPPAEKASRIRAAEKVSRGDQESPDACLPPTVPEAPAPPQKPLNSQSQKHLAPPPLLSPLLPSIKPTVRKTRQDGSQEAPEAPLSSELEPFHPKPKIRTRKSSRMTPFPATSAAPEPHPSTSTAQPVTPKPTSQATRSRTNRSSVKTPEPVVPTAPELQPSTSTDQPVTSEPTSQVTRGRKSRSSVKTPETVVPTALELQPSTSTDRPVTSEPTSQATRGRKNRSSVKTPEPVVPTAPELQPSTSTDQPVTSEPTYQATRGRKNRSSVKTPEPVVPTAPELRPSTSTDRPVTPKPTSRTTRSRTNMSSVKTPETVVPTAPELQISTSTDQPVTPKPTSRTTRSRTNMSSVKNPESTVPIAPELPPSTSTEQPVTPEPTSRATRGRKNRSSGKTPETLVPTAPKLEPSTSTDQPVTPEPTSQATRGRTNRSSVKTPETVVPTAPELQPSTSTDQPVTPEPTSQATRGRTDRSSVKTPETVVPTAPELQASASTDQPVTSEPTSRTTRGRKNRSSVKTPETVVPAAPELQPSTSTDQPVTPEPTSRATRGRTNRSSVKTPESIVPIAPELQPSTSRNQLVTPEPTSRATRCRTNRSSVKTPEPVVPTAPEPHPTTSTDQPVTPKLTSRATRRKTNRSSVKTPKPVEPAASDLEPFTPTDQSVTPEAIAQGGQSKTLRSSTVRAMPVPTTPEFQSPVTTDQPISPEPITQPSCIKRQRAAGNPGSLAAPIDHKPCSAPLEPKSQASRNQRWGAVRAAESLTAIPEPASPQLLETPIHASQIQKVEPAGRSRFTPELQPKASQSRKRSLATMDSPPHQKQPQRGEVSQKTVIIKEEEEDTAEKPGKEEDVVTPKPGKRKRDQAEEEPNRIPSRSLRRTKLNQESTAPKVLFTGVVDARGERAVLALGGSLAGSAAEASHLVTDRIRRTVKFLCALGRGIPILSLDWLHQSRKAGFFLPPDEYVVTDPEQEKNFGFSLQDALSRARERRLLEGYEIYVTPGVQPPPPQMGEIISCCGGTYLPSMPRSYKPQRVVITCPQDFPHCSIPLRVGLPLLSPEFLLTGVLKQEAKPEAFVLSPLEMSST
UniProt Q13547: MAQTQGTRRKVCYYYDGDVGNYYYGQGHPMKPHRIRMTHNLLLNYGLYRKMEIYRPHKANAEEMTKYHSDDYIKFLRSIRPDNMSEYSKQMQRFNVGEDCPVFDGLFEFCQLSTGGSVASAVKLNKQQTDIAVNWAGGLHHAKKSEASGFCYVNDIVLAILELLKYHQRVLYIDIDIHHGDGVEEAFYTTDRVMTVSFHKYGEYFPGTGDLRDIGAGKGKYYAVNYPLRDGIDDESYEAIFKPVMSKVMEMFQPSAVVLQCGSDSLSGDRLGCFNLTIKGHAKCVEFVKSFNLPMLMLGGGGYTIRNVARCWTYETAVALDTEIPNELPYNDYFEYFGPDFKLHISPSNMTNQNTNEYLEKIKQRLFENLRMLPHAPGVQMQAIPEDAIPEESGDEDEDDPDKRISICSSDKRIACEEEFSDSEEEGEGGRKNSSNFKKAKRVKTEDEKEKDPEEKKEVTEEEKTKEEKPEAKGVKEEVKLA
UniProt Q92769: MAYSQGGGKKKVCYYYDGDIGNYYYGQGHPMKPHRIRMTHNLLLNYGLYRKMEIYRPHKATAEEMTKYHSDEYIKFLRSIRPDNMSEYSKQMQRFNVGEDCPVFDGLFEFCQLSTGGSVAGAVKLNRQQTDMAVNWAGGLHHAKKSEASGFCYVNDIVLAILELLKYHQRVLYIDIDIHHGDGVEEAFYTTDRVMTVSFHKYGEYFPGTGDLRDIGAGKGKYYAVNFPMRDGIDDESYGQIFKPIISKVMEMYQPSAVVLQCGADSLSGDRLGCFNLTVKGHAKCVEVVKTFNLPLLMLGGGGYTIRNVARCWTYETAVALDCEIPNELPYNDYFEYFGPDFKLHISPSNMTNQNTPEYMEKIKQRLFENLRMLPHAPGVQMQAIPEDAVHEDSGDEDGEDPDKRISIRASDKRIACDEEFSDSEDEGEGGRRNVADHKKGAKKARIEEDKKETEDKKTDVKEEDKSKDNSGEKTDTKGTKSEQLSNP

Results are given in words; binding and its absence hold for the method and conditions named. Binding seen in cells or lysates may run through a third protein. Some binding calls cover weakened binding; strength is not graded here.

“endogenous HDAC2 in MM cells (from UniProt Q92769 1-488) (enzyme)”: the binding entry in [1] is recorded as “binds”. As to “HDAC1 (co-precipitated with HP1γ-WT, -K5R, -K5Q; Supplementary Fig. 6e) (from UniProt Q13547 1-482) (enzyme)”, the binding entry (with HP1γ-K5R; in [2]; with HP1γ-K5Q) was “binds” each time. Take “endogenous MDC1 (Fig. 3f) (from UniProt Q14676 1-2089)”: in [3], the binding result is “binds”. Consider MDC1-GFP (from UniProt Q14676 1-2089), for which the binding entry in the assay with flag-tagged HP1γ is listed as “binds”.

Consider “endogenous HDAC1 in MM cells (from UniProt Q13547 1-482) (enzyme)”, for which the binding entry in [4] and in assay [1] was “binds” throughout. Regarding “endogenous HP1γ (from UniProt Q13185 1-183)”, the binding entry in assay [5] and in assay [6] was “binds” throughout. For the substance “MDC1 (co-precipitated with HP1γ-WT, -K5R, -K5Q; Supplementary Fig. 6e) (from UniProt Q14676 1-2089)”, the binding entry (with HP1γ-K5R; in assay [2]; with HP1γ-K5Q) was “binds” in each case.

Values taken from publication PMC9998874.
